Reference: publication PMC11381335, “Unraveling the structure and function of a novel SegC protein interacting with the SegAB chromosome segregation complex in Archaea” (Nucleic Acids Research, 2024)
The exact form of at least one protein or probe is not confirmed. Where a protein sequence is shown, tags need not be part of it.

Molecular target: T1, SegC (UniProt Q981B4)
T1 sequence (looked up): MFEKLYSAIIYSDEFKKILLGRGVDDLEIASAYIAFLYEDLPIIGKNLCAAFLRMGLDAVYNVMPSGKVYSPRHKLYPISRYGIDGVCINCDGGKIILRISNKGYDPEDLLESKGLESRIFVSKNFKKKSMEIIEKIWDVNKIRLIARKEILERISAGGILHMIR
Assay: fluorescence polarization
Conditions: printed as ~10^-6 uM, evidently 10^-6 M, collective value for Figure 1A and B; FP: 20 mM Tris-HCl pH 7.5, 100 mM NaCl, 2 mM MgCl2, 5 nM Cy3-DNA, room temperature; recombinant protein; residues 1-165; protein details: C-terminal His6; label: 5' Cy3

AGGGTGTTCCACGTGAAACAGGGA (double strand) [24-bp non-specific DNA (nsDNA; Figure 1 legend says 23-bp)]
Kd: 1000 nM
